This is one part of the list.
Compound: CN1CC[C@H](c2c(O)cc(O)c3c(=O)cc(-c4ccccc4Cl)oc23)[C@H](O)C1 [alvocidib]
Assay: log2 fold change, soluble protein after heating vs DMSO (PISA); higher = thermal stabilisation; K562 lysate, 10 uM; active = over 0.2 and 3.5 SD of the protein, either way, in both replicates (recomputed)
In short: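 To prepare the extract, K562 pellets were dounce-homogenised in PBS pH 7.4 with 1 mM MgCl2, giving crude material at 1 mg/mL protein. This was treated with 10 μM compound for 30 min, then heated in aliquots for 3 min over 48°C-58°C before pooling and addition of NP-40 to 0.5% at 4°C. Centrifugation at 21,000xg for 90 min left soluble protein in the supernatant, which TMTpro 16plex LC-MS/MS quantified with equalised channel sums. Results are log-two fold changes in thermal stability compared with solvent controls, from duplicates.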

Sequences of proteins named here, by UniProt entry; tags and fusion partners are left off. A change or cut given only in a name is not applied to a line headed by its entry.
UniProt Q5QJE6: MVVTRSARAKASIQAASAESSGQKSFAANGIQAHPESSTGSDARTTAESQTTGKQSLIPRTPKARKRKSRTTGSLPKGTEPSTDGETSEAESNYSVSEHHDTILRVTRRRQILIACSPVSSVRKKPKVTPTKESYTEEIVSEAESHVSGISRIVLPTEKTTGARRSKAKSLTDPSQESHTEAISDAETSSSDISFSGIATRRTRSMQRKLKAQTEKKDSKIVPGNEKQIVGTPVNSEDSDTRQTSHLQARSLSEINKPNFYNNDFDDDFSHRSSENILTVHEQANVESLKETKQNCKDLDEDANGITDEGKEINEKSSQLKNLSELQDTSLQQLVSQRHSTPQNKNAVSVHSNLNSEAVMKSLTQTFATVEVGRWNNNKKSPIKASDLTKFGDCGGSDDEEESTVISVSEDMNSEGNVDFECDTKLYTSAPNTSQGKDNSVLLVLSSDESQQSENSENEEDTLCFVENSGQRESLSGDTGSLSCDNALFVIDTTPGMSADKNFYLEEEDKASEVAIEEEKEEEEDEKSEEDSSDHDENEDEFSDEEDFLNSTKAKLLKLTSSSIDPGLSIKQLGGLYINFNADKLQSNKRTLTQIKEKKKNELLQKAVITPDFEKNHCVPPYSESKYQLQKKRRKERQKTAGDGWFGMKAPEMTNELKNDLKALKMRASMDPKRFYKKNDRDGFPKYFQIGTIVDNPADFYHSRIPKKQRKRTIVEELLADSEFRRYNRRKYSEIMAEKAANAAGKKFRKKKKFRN
UniProt Q9BY27: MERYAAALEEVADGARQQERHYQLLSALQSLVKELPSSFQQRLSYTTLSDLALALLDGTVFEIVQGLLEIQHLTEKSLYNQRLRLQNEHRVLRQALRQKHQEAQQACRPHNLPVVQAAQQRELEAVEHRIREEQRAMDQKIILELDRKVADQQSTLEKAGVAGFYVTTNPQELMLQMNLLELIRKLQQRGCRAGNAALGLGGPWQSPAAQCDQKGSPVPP
UniProt Q9H147: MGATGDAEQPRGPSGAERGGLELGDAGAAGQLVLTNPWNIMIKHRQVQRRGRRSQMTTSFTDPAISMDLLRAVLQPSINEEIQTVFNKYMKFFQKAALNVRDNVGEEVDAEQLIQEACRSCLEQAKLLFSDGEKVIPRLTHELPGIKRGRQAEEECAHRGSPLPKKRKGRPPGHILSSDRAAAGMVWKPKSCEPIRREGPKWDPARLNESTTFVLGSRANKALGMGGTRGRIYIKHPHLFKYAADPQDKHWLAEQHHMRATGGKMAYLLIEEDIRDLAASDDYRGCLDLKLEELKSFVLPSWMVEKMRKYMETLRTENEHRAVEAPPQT
UniProt P25686: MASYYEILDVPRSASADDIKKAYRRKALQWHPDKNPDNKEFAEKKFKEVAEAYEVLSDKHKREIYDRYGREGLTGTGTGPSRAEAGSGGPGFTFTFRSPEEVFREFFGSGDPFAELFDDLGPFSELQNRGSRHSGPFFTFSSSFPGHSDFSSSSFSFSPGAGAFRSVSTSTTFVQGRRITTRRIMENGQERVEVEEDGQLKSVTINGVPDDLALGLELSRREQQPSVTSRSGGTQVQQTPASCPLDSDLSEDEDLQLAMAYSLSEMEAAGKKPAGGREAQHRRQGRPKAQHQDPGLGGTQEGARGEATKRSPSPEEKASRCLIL
UniProt P49184: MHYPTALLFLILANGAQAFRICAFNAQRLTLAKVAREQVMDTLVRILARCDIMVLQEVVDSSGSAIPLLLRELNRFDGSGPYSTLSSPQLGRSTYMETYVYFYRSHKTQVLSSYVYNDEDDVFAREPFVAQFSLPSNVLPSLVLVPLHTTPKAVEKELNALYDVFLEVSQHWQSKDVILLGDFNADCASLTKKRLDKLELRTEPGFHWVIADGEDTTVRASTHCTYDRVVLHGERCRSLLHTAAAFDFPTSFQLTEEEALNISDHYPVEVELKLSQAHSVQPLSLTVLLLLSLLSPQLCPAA
UniProt Q9H6R0: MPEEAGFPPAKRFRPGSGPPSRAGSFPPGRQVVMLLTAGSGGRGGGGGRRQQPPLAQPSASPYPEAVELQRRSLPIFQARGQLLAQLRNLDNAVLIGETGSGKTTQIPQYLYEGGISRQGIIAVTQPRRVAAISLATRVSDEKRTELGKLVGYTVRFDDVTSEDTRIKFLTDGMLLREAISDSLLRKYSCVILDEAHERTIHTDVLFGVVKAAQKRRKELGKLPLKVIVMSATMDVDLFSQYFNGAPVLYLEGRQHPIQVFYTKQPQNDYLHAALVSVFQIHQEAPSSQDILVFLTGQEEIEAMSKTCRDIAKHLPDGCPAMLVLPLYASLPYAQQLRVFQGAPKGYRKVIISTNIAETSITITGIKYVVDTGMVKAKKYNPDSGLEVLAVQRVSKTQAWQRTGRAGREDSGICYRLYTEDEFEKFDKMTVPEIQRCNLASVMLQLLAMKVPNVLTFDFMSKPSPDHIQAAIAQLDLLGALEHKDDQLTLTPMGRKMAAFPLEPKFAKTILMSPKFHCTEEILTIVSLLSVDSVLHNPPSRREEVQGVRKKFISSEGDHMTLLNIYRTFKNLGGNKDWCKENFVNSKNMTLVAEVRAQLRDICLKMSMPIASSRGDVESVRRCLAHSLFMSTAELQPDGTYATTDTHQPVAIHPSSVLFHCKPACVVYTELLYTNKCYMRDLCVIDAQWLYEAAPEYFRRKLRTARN
UniProt Q9Y3R5: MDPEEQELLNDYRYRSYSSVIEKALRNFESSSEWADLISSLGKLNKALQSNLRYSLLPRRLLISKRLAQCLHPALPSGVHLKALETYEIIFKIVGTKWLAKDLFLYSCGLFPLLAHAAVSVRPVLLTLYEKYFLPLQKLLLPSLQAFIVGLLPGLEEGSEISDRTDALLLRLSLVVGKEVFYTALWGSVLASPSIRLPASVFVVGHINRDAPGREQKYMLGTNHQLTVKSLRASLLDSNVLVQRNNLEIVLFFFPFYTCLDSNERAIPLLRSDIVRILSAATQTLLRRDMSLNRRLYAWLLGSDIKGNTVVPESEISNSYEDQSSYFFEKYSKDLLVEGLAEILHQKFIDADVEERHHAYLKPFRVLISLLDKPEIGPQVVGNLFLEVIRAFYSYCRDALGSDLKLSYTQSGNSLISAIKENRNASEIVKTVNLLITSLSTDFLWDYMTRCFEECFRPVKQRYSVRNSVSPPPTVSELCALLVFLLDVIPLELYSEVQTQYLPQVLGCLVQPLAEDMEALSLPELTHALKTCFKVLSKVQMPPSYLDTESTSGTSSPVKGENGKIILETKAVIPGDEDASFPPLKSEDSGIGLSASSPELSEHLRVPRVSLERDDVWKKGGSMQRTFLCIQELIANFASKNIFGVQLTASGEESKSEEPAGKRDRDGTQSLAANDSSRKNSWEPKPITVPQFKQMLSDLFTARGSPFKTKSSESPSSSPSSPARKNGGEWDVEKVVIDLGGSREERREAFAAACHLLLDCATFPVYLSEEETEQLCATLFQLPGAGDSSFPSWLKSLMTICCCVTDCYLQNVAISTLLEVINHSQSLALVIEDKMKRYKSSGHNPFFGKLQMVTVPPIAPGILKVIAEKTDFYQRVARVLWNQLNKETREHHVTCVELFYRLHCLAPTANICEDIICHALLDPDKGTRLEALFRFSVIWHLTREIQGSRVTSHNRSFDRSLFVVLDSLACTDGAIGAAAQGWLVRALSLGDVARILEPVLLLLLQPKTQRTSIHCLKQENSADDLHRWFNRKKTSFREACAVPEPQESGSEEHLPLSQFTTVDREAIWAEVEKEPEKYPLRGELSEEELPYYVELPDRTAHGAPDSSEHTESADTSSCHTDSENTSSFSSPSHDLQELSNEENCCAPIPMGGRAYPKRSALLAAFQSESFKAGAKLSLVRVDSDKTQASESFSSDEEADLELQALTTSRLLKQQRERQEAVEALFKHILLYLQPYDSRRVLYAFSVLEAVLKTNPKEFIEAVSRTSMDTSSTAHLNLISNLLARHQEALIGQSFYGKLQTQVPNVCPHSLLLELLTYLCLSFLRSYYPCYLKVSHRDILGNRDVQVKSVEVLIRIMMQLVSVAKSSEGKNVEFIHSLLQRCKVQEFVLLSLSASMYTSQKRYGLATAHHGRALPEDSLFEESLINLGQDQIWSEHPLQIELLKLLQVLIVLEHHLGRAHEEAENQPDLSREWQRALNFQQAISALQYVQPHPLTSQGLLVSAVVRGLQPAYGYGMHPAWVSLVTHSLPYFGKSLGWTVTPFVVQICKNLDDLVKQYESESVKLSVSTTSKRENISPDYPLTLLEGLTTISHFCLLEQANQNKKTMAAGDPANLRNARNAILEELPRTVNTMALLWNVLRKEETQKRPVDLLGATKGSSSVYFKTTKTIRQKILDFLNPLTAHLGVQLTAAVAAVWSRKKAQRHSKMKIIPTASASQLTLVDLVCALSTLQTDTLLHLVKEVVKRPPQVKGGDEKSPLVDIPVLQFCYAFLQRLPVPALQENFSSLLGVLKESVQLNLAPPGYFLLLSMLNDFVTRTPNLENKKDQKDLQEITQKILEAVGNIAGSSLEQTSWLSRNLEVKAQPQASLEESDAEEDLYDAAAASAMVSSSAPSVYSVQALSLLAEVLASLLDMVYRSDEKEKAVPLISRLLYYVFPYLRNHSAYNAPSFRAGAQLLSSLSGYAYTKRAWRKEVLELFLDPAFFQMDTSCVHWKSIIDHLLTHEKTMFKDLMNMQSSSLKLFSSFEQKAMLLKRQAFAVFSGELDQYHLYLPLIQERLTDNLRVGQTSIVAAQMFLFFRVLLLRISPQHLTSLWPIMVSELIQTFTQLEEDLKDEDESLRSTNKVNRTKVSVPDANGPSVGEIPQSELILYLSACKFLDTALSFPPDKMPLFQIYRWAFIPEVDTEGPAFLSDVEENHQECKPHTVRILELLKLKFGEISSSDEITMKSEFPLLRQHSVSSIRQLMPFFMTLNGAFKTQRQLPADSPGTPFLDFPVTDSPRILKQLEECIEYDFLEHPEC
UniProt P26358: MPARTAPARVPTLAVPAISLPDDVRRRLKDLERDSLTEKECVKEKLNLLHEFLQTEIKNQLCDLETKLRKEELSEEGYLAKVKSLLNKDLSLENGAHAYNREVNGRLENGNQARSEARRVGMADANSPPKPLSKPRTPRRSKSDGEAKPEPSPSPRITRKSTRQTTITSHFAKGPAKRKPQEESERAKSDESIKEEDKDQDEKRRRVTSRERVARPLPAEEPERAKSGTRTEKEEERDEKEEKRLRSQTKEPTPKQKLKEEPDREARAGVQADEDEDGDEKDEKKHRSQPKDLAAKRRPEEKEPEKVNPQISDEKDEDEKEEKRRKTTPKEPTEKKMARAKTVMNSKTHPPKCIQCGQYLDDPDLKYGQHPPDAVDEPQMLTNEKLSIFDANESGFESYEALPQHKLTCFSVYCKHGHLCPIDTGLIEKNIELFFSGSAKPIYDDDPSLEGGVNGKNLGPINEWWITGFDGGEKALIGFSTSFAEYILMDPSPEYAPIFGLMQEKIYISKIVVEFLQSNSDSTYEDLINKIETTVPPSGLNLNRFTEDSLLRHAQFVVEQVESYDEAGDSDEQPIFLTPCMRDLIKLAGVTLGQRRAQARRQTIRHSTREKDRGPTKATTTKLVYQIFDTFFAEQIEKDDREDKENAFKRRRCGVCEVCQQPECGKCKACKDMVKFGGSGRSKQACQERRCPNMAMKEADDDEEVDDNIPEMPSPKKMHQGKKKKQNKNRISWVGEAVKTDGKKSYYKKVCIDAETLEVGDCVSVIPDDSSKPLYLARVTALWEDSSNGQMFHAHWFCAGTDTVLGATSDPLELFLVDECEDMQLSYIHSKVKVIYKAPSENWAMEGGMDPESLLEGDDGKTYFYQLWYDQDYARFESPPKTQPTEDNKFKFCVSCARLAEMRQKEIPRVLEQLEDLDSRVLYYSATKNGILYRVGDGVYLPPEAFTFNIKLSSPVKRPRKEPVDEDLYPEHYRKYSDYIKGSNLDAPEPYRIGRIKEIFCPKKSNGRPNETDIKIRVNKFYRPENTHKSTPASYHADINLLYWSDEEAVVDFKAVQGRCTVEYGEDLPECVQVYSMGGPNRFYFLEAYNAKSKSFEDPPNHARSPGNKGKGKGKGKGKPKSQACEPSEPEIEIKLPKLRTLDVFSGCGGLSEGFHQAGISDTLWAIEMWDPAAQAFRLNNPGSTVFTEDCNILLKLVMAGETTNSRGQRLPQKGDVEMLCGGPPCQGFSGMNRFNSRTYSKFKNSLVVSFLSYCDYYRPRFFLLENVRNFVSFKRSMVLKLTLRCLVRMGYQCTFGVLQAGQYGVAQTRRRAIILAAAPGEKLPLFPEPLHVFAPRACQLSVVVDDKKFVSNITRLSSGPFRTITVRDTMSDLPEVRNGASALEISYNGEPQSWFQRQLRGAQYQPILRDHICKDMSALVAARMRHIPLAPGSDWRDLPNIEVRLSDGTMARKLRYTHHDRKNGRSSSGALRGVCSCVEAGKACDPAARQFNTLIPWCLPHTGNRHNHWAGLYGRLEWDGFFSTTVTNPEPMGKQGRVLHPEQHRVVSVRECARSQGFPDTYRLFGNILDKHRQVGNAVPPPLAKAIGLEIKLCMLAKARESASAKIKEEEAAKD

log2 fold change, inactive:
DOCK11, A0A0J9YW64 -0.005
DMTN isoform 2 (UniProt Q08495) -0.194
DNAH12 (UniProt Q6ZR08) 0.016
DNTTIP2 (UniProt Q5QJE6) 0.01
DHPS (UniProt M0R1T2) -0.097
DGCR6L (UniProt Q9BY27) 0.066
DNMT3A (UniProt Q9Y6K1) -0.106
DNTTIP1 (UniProt Q9H147) 0.14
DMBT1 isoform 6 (UniProt Q9UGM3) -0.154
DNPEP (UniProt C9JBE1) -0.051
DLGAP5 isoform 3 (UniProt Q15398) 0
DNAJB2 (UniProt P25686) 0.006
DNASE1L1 (UniProt P49184) -0.109
DHX33 (UniProt Q9H6R0) -0.02
DOP1B (UniProt Q9Y3R5) 0
DNMT1 (UniProt P26358) -0.07

Taken from the entries so far for reference:
log2 fold change, inactive:
DGCR6L (UniProt Q9BY27) 0.066
DNMT3A (UniProt Q9Y6K1) -0.106

— the supplement of paper PMC10849652
